No constants are given. Whether binding was seen depends on the method and setting. In cells and extracts the contact can be indirect. These calls come from enrichment with a bait or labelling near it, and not all partners need be listed.
B1: DCX (protein, UniProt O43602 1-365)
chain: MELDFGHFDERDKTSRNMRGSRMNGLPSPTHSAHCSFYRTRTLQALSNEKKAKKVRFYRNGDRYFKGIVYAVSSDRFRSFDALLADLTRSLSDNINLPQGVRYIYTIDGSRKIGSMDELEEGESYVCSSDNFFKKVEYTKNVNPNWSVNVKTSANMKAPQSLASSNSAQARENKDFVRPKLVTIIRSGVKPRKAVRVLLNKKTAHSFEQVLTDITEAIKLETGVVKKLYTLDGKQVTCLHDFFGDDDVFIACGPEKFRYAQDDFSLDENECRVMKGNPSATAGPKASPTPQKTSAKSPGPMRRSKSPADSGNDQDANGTSSSQLSTPKSKQSPISTPTSPGSLRKHKDLYLPLSLDDSDSLGDSM
B2: activity dependent neuroprotector homeobox (ADNP) (protein, UniProt Q9H2P0 1-1102)
chain: MFQLPVNNLGSLRKARKTVKKILSDIGLEYCKEHIEDFKQFEPNDFYLKNTTWEDVGLWDPSLTKNQDYRTKPFCCSACPFSSKFFSAYKSHFRNVHSEDFENRILLNCPYCTFNADKKTLETHIKIFHAPNASAPSSSLSTFKDKNKNDGLKPKQADSVEQAVYYCKKCTYRDPLYEIVRKHIYREHFQHVAAPYIAKAGEKSLNGAVPLGSNAREESSIHCKRCLFMPKSYEALVQHVIEDHERIGYQVTAMIGHTNVVVPRSKPLMLIAPKPQDKKSMGLPPRIGSLASGNVRSLPSQQMVNRLSIPKPNLNSTGVNMMSSVHLQQNNYGVKSVGQGYSVGQSMRLGLGGNAPVSIPQQSQSVKQLLPSGNGRSYGLGSEQRSQAPARYSLQSANASSLSSGQLKSPSLSQSQASRVLGQSSSKPAAAATGPPPGNTSSTQKWKICTICNELFPENVYSVHFEKEHKAEKVPAVANYIMKIHNFTSKCLYCNRYLPTDTLLNHMLIHGLSCPYCRSTFNDVEKMAAHMRMVHIDEEMGPKTDSTLSFDLTLQQGSHTNIHLLVTTYNLRDAPAESVAYHAQNNPPVPPKPQPKVQEKADIPVKSSPQAAVPYKKDVGKTLCPLCFSILKGPISDALAHHLRERHQVIQTVHPVEKKLTYKCIHCLGVYTSNMTASTITLHLVHCRGVGKTQNGQDKTNAPSRLNQSPSLAPVKRTYEQMEFPLLKKRKLDDDSDSPSFFEEKPEEPVVLALDPKGHEDDSYEARKSFLTKYFNKQPYPTRREIEKLAASLWLWKSDIASHFSNKRKKCVRDCEKYKPGVLLGFNMKELNKVKHEMDFDAEWLFENHDEKDSRVNASKTADKKLNLGKEDDSSSDSFENLEEESNESGSPFDPVFEVEPKISNDNPEEHVLKVIPEDASESEEKLDQKEDGSKYETIHLTEEPTKLMHNASDSEVDQDDVVEWKDGASPSESGPGSQQVSDFEDNTCEMKPGTWSDESSQSEDARSSKPAAKKKATMQGDREQLKWKNSSYGKVEGFWSKDQSQWKNASENDERLSNPQIEWQNSTIDSEDGEQFDNMTDGVAEPMHGSLAGVKLSSQQA

By UniProt entry, the sequences of proteins in these tests, tags left out.
UniProt Q9P0L2: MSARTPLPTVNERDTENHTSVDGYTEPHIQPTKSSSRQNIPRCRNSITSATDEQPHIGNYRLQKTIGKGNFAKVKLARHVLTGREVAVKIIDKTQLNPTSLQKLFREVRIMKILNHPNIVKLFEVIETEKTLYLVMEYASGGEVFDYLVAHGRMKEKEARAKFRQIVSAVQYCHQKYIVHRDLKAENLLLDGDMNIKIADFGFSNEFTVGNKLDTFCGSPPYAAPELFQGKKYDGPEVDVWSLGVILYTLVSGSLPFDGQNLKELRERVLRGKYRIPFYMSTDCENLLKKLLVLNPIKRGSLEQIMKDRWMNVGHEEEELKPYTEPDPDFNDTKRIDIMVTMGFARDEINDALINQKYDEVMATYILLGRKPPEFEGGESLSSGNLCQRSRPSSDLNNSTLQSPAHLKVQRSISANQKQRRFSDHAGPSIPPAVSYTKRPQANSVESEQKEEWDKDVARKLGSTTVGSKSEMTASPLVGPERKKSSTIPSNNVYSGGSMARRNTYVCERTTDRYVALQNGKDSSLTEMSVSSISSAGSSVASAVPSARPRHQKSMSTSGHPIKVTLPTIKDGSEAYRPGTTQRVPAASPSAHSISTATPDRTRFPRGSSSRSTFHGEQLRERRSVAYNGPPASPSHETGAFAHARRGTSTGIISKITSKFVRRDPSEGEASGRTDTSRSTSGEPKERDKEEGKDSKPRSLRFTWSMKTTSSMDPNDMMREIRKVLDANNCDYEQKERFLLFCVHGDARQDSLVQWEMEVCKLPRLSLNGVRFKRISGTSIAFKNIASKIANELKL
UniProt Q96BD5: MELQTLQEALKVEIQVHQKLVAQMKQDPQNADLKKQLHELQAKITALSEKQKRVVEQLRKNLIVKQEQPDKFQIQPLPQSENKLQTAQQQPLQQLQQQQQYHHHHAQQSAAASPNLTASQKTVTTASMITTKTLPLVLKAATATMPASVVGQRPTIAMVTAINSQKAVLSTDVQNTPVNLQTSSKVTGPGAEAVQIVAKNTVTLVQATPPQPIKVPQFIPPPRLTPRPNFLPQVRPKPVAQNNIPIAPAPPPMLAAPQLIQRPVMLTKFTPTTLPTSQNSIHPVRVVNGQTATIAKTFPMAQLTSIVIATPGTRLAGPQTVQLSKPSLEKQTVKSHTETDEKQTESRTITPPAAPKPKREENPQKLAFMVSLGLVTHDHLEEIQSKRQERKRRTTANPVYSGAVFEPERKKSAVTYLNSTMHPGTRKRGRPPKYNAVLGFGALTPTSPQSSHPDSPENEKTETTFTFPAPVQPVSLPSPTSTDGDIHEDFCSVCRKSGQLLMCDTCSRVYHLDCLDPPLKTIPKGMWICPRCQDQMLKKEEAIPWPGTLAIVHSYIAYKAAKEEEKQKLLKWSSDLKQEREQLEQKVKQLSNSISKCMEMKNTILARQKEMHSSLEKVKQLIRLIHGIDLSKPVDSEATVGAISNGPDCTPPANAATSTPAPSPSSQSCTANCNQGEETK
UniProt Q96QT6: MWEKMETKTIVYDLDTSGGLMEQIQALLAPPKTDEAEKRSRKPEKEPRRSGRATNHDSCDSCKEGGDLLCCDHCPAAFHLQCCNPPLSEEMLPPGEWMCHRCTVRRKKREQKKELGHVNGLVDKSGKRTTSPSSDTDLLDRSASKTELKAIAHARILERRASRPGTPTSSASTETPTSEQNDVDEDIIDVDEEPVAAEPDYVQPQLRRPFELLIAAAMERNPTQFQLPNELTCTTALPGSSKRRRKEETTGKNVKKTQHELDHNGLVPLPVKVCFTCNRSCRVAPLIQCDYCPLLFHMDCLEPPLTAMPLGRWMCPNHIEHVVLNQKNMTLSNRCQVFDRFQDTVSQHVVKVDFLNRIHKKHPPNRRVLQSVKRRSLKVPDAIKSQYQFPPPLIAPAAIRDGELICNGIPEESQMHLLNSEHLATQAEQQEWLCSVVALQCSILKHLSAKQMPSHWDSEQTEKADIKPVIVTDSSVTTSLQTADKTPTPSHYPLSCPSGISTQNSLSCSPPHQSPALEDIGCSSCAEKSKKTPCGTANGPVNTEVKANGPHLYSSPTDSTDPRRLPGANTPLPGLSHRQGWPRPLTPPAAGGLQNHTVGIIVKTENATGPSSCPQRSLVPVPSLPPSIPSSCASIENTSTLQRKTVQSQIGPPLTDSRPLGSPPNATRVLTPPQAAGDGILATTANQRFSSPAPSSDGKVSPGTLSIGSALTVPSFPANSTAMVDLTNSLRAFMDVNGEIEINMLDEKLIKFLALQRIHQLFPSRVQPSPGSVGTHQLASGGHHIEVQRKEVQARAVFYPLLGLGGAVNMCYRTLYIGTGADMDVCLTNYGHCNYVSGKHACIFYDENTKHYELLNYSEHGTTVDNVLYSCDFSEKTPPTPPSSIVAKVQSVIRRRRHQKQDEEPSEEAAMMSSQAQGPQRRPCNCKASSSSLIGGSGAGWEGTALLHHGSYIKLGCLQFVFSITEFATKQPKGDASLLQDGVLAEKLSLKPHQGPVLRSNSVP

Molecular target: T1, POU3F2 (human (endogenous in iPSC-derived NPCs)) (UniProt P20265)
T1 sequence: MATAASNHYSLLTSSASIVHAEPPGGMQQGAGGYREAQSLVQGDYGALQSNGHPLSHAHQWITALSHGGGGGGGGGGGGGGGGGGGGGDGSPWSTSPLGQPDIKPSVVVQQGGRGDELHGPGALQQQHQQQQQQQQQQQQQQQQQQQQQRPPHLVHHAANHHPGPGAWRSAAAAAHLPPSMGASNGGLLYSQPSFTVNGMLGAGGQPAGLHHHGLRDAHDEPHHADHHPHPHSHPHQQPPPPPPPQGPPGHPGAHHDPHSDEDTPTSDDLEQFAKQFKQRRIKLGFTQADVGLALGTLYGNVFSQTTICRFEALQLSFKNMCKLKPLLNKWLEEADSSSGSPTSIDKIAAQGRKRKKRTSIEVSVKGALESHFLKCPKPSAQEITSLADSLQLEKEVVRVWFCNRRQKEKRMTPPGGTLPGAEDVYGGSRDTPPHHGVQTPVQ
Experiment: affinity purification with mass spectrometry; immunoprecipitation of endogenous POU3F2 from pre-cleared 1% CHAPSO lysates of POU3F2^WT NPCs with anti-POU3F2 antibody cross-linked (BS3) to Protein G Dynabeads, overnight at 4°C, TMT-MS; POU3F2^MUT NPCs in parallel as negative controls

binding, binds:
MARK1 (from UniProt Q9P0L2 1-795)
PHF21A (from UniProt Q96BD5 1-680)
PHF12 (from UniProt Q96QT6 1-1004)
B1
B2

Reference: PMC12677912
